Values quoted from earlier work in patent publication US5010073A, “Use of liposomes as carriers for metalloporphyrins” (The Rockefeller University, priority 1990, dated 1991).
Where two headings read alike, the source gives them in different places. For at least one compound, name, drawing or mass did not settle the structure.

Conditions: read-out: CONCENTRATION OF SnPP IN ORGAN @ 24 HOURS, HOMOGENATE, rats, intravenous, Mean ± SE for 3-4 rats, cited from earlier work

For `C=Cc1c2[n-]c(c1C)/C=c1\[n-]/c(c(C)c1C=C)=C\c1[n-]c(c(CCC(=O)O)c1C)/C=c1\[n-]c(c(C)c1CCC(=O)O)=C2.[Sn+4]` [SnPP, tin protoporphyrin], the concentration (KIDNEY) is listed as 99.3 µM and the concentration (LIVER) is listed as 27 µM.
